Source: article PMC8670446
These are yes or no findings as the source states them, for the method shown.

Protein sequences, listed by entry. Tags and fused reporters are not part of them.
UniProt P10591: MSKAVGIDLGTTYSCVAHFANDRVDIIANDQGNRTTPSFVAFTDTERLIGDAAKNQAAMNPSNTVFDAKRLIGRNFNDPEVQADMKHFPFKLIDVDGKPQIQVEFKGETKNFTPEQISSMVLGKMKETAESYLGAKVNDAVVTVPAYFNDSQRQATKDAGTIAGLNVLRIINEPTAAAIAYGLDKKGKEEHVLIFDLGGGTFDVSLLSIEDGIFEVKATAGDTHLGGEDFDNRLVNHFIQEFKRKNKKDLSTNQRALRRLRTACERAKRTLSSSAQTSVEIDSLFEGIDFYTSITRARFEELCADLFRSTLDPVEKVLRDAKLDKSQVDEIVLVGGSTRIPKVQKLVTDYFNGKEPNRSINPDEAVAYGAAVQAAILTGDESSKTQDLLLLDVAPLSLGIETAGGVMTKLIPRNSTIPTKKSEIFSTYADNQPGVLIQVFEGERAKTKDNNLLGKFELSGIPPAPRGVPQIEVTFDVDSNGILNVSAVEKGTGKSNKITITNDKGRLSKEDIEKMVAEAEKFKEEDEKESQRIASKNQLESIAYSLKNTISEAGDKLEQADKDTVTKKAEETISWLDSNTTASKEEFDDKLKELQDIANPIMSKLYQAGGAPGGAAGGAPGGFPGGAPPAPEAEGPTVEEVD
UniProt P25491: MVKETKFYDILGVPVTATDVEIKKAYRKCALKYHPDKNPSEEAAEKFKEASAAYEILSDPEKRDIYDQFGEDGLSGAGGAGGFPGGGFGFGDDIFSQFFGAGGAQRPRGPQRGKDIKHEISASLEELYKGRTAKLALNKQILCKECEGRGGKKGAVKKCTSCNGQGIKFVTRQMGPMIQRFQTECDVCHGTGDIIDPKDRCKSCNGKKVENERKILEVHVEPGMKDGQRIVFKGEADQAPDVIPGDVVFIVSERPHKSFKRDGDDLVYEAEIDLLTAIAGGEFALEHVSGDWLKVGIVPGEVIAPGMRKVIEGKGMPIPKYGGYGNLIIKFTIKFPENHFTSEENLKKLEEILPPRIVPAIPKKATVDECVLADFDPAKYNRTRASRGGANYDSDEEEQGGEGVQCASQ

Target: His6-SUMO [SUMO: Q12306]
Assay: BLI; His6-SUMO immobilised on the sensor; JDPs or Ssa1 in solution; background control; both purified

binding	Substance
no binding	Ssa1 (from UniProt P10591 1-642)
no binding	Ydj1 (from UniProt P25491 1-409)
